Test results taken from PMC8376253.
No constants are given. Whether binding was seen depends on the method and setting. In cells and extracts the contact can be indirect. Here binding means that the protein was enriched with, or labelled near, the bait; the list need not be complete.

Target: T1, endogenous mouse Naa15 (liver) (mouse (endogenous in liver)) (UniProt Q80UM3)
T1 sequence: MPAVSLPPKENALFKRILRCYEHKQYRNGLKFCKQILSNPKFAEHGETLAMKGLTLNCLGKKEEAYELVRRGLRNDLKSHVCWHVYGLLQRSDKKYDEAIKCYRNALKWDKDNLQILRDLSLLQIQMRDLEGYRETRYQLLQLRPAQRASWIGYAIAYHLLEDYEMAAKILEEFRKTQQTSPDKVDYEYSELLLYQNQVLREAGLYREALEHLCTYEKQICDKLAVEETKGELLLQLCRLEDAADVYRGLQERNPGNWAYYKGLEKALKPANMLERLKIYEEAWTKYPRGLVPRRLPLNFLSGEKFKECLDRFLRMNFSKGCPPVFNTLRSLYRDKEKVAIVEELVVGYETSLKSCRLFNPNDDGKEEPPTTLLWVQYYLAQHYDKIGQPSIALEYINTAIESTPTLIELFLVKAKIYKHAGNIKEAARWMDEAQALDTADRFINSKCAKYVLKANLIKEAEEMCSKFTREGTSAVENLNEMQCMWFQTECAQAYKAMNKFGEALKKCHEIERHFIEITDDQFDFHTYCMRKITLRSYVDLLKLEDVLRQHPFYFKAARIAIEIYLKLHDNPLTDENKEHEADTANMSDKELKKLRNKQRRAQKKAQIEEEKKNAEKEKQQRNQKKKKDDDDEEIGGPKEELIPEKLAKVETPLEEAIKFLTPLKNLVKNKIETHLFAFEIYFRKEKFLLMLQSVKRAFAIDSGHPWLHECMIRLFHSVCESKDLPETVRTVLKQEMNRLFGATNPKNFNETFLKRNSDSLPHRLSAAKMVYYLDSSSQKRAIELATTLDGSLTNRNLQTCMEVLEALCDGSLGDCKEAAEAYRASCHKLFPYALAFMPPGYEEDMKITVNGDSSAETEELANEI
Assay: affinity purification with mass spectrometry; liver lysate of a WT and a Naa10 KO mouse in IPH lysis buffer; anti-Naa15 antibody (anti-V5 as control), Protein A/G magnetic beads; LC-MS/MS, label-free quantification

B1: endogenous mouse Naa12 (liver) (protein, UniProt Q9CQX6 1-220)
chain: MNIRRARPDDLMNMQHCNLLCLPENYQMKYYFYHGLSWPQLSYIAEDEDGKIVGYVLAKMEEDPDDVPHGHITSLAVKRSHRRLGLAQKLMDQASRAMIENFSAKYVSLHVRKSNRAALHLYSNTLNFQVSEVEPKYYADGEDAYAMKRDLSQMADELRRQLVLKKGRYVVLGSKENQGSTLPGSEEASQQENLAGGDSGSDGKDSTDVQDSLQTLGSAS
binding: binds
